Assay results published in article PMC2246842, “Decrease of prostaglandin I2 binding sites in thyroid cancer” (British Journal of Cancer, 1988).

Columns and labels:
Parameters in all cases: species or system human
[1] = test system: prostaglandin I2 (prostacyclin, PGI2) binding sites; test: [3H]iloprost saturation binding (vacuum filtration, Scatchard analysis) on normal thyroid membrane fraction; settings: normal thyroid tissue
Procedure: (§1) For comparative studies saturation experi- ments were performed. […] Values are given as x +s.d. Student's t-test was employed for paired data. […] Each point represents the average of 6 separate experiments. […] Each point represents the average of 5 separate determinations.

[2] = test system: prostaglandin I2 (prostacyclin, PGI2) binding sites; test: [3H]iloprost saturation binding (vacuum filtration, Scatchard analysis) on well differentiated thyroid cancer membrane fraction
Procedure: as §1

[3] = test system: prostaglandin I2 (prostacyclin, PGI2) binding sites; test: [3H]iloprost saturation binding (vacuum filtration, Scatchard analysis) on less differentiated and anaplastic thyroid cancer membrane fraction
Procedure: as §1

CC#CCC(C)[C@H](O)/C=C/[C@@H]1[C@H]2C/C(=C/CCCC(=O)O)C[C@H]2C[C@H]1O (stereo partly drawn) [[3H]iloprost, iloprost]
binding capacity (Bmax), low affinity binding sites ([1]; 4 C, 40 min, mean +/- s.d.): 5.1+1.6 pmol mg-1 membrane protein | percentage of specific [3H]iloprost binding ([1]; high affinity binding range): ~80% | low affinity binding sites [2]: not demonstrable | specific binding at [3H]iloprost concentrations > 100 nM ([2]; 4 C, 40 min): no specific binding was observed | low affinity binding sites [3]: not demonstrable | specific binding at [3H]iloprost concentrations > 100 nM ([3]; 4 C, 40 min): no specific binding was observed
